These are yes or no findings as the source states them, for the method shown. Binding seen in cells or lysates may run through a third protein. A yes stands for co-enrichment or nearness to the bait. Other partners may have been found. No binding means not detected with the bait.
Legend:
HMGA2-V5-miniTurbo = HMGA2-V5-miniTurbo (UniProt P52926); test: proximity labelling; miniTurbo: HEK293 stably expressing HMGA2-V5-miniTurbo, SILAC, 1 hr labeling time with biotin; streptavidin capture, LC-MS/MS; control miniTurbo alone
HMGA2-Flag-BioID2 = HMGA2-Flag-BioID2 (UniProt P52926); test: proximity labelling; BioID2: HEK293 stably expressing HMGA2-Flag-BioID2, SILAC, 50 uM biotin for 18 h; high-salt RIPA lysis, capture on streptavidin-agarose, LC-MS/MS; two experiments, controls BirA* and parental cells (experiment 1), BioID2 alone (experiment 2)

Sequences of proteins named here, by UniProt entry; tags and fusion partners are left off.
UniProt P52926: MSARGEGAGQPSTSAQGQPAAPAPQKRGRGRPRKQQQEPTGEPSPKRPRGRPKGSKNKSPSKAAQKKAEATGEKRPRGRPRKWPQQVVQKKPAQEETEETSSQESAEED
UniProt P16403: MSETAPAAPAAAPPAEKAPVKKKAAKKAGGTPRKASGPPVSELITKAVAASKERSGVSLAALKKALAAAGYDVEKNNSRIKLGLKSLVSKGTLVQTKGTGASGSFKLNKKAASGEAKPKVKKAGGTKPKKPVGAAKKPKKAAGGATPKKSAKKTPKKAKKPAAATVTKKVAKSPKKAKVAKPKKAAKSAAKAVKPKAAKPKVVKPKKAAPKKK
UniProt Q13185: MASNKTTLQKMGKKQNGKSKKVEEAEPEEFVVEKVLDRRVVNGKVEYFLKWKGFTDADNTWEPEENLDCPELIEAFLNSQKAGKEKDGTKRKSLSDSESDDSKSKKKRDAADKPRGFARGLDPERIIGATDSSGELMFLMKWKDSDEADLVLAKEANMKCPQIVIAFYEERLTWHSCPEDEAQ
UniProt P09429: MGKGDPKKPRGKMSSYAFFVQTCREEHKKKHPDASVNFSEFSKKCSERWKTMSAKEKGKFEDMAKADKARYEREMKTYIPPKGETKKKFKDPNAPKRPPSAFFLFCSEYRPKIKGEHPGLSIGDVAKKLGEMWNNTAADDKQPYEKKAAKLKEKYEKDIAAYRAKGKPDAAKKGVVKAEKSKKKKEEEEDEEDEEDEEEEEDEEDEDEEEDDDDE
UniProt P46013: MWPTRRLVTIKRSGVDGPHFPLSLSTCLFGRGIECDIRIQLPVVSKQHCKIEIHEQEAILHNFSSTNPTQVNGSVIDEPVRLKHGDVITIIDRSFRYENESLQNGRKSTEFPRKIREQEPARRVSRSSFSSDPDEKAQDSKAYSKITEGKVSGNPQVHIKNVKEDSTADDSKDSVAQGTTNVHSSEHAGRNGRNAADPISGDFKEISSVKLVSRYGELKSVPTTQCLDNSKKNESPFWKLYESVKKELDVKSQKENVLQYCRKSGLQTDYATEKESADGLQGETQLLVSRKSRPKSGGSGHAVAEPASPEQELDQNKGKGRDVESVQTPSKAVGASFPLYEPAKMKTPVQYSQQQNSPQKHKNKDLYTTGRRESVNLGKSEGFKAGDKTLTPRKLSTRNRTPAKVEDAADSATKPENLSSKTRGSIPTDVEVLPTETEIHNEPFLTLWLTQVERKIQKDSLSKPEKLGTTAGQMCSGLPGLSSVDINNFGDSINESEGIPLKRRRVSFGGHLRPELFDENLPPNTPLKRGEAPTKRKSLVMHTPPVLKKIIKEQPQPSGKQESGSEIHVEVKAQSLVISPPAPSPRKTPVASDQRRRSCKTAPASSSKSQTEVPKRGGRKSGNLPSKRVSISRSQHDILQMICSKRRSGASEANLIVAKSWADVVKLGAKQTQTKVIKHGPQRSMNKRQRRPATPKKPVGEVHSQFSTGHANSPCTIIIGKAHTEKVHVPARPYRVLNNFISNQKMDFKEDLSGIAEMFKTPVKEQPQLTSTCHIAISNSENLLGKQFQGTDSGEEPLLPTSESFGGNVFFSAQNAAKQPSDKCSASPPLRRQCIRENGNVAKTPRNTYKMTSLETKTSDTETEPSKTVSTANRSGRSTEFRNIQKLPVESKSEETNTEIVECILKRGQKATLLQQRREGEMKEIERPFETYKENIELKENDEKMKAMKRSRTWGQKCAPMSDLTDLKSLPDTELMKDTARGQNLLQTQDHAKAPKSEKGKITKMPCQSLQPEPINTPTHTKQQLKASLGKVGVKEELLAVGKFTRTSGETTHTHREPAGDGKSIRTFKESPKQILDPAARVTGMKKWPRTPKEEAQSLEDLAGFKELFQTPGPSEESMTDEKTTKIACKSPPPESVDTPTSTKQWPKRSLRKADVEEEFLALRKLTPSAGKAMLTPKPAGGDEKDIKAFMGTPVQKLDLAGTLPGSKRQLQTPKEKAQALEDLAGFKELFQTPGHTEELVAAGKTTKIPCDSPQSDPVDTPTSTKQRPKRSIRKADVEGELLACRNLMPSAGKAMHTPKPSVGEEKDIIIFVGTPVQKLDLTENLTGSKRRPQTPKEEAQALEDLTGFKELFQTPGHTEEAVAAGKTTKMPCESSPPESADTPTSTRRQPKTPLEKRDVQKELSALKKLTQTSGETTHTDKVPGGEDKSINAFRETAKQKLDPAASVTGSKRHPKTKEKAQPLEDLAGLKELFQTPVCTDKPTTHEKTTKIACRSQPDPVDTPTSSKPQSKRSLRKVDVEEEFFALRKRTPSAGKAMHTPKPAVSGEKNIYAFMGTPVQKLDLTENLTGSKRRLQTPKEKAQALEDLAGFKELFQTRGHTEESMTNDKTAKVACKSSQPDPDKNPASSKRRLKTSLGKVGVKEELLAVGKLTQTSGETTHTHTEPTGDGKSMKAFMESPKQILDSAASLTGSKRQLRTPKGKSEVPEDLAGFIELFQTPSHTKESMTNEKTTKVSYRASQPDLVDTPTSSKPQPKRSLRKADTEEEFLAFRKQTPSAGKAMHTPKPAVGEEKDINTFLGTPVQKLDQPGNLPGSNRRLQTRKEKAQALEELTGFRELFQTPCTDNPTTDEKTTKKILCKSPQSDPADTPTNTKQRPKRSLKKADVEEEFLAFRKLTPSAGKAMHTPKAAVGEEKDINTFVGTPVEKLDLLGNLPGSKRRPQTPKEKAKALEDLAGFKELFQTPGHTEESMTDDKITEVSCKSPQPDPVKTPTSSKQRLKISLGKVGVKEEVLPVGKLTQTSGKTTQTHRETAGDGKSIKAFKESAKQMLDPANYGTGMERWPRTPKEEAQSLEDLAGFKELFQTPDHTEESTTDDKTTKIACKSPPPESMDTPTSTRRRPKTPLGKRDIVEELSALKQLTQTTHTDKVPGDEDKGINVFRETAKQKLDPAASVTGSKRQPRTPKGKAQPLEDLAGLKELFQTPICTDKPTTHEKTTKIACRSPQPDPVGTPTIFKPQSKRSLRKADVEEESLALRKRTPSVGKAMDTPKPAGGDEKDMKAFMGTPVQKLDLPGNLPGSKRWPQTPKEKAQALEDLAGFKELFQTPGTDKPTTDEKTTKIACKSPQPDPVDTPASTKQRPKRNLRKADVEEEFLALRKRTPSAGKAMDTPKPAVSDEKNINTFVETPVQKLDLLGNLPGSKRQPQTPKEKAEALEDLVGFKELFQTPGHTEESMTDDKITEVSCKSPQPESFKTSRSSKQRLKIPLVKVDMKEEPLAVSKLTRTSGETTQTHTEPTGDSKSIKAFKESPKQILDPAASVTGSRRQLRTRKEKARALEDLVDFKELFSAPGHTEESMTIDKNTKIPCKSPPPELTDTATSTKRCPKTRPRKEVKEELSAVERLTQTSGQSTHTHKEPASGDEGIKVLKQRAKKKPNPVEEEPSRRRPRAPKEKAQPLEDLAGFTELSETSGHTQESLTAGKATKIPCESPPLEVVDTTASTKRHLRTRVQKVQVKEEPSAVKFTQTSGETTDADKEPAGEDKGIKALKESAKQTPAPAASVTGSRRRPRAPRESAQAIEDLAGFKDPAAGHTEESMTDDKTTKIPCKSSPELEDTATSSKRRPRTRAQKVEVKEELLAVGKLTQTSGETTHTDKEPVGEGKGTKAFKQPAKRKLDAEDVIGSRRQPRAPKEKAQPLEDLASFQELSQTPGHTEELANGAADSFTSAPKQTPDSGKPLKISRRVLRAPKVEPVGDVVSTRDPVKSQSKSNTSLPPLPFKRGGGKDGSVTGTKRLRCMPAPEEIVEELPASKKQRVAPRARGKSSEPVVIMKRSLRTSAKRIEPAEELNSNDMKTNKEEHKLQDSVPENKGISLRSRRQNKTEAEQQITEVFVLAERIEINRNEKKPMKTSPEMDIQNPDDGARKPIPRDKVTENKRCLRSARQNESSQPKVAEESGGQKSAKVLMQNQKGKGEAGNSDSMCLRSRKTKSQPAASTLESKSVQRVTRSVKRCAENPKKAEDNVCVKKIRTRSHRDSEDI
UniProt Q08945: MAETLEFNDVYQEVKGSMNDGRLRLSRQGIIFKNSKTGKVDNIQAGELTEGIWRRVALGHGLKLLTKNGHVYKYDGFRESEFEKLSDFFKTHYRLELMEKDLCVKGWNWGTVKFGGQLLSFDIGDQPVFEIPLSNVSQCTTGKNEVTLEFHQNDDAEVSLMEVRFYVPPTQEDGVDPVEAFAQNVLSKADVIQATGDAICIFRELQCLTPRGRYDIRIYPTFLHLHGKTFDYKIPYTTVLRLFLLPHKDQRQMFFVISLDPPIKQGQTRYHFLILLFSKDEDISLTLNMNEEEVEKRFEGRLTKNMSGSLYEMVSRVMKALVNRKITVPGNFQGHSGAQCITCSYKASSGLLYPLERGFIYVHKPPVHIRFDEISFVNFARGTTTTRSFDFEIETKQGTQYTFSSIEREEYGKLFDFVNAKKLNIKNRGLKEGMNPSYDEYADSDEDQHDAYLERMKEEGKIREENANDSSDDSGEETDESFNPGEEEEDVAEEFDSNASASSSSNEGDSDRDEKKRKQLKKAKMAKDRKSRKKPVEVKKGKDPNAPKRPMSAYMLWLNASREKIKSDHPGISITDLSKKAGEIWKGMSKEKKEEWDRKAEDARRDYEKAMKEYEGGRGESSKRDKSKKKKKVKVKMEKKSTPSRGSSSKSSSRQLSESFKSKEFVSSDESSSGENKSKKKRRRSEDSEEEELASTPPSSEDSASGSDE
UniProt O95785: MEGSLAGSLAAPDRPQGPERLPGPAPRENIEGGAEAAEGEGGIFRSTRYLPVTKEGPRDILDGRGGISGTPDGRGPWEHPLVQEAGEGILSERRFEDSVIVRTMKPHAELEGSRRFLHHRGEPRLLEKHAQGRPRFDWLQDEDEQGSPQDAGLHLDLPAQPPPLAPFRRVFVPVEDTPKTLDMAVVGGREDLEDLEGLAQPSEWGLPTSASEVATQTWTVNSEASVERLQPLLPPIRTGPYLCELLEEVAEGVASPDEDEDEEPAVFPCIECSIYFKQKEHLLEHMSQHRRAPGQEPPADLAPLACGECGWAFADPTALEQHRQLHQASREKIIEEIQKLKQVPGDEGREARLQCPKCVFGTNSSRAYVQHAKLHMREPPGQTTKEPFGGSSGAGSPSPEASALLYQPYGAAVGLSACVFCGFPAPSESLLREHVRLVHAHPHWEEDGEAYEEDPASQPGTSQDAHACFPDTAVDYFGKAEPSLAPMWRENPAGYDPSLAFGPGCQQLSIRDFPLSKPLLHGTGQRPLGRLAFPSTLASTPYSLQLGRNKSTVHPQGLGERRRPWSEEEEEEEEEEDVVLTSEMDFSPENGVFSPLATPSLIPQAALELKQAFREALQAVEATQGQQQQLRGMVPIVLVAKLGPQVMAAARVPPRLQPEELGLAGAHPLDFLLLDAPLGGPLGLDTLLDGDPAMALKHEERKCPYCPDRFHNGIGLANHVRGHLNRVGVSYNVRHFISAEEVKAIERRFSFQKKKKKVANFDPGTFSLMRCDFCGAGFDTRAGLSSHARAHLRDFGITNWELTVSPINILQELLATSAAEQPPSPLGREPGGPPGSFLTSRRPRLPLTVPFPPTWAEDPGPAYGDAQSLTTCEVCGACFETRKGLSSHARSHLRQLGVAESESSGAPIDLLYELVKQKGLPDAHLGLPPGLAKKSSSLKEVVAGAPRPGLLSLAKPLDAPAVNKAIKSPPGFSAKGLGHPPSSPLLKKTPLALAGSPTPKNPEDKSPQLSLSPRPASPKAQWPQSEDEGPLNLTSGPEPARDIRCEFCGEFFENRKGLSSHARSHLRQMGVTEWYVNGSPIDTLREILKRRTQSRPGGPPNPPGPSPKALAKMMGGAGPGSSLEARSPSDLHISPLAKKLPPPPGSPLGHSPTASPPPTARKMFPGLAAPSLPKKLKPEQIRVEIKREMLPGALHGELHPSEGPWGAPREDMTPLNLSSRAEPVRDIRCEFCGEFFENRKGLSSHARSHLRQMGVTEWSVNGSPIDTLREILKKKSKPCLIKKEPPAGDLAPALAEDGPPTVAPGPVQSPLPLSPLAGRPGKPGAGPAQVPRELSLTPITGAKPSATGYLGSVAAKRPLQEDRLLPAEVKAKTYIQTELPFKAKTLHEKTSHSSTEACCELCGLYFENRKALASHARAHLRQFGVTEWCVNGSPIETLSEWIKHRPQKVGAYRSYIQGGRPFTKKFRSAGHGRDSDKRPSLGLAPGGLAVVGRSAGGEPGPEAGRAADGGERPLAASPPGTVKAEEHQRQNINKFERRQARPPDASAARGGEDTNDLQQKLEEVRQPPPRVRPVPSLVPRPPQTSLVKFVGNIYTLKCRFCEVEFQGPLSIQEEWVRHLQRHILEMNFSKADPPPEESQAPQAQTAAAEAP

binding (HMGA2-V5-miniTurbo)	binding (HMGA2-Flag-BioID2)	Molecule
binds	binds	GTF2I (from UniProt P78347 1-998)
binds	binds	HAT1 (from UniProt O14929 1-419)
binds	binds	HIST1H1C (from UniProt P16403 1-213)
binds	binds	MDC1 (from UniProt Q14676 1-2089)
binds	binds	PARP1 (from UniProt P09874 1-1014)
binds	binds	TPX2 (from UniProt Q9ULW0 1-747)
no binding	no binding	Topoisomerase I (TOPO-1) (from UniProt P11387 1-765)
binds	binds	ZNF24 (from UniProt P17028 1-368)
binds	binds	CDCA2 (protein, UniProt Q69YH5 1-1023) MDANSKDKPPETKESAMNNAGNASFILGTGKIVTPQKHAELPPNPCTPDTFKSPLNFSTVTVEQLGITPESFVRNSAGKSSSYLKKCRRRSAVGARGSPETNHLIRFIARQQNIKNARKSPLAQDSPSQGSPALYRNVNTLRERISAFQSAFHSIKENEKMTGCLEFSEAGKESEMTDLTRKEGLSACQQSGFPAVLSSKRRRISYQRDSDENLTDAEGKVIGLQIFNIDTDRACAVETSVDLSEISSKLGSTQSGFLVEESLPLSELTETSNALKVADCVVGKGSSDAVSPDTFTAEVSSDAVPDVRSPATPACRRDLPTPKTFVLRSVLKKPSVKMCLESLQEHCNNLYDDDGTHPSLISNLPNCCKEKEAEDEENFEAPAFLNMRKRKRVTFGEDLSPEVFDESLPANTPLRKGGTPVCKKDFSGLSSLLLEQSPVPEPLPQPDFDDKGENLENIEPLQVSFAVLSSPNKSSISETLSGTDTFSSSNNHEKISSPKVGRITRTSNRRNQLVSVVEESVCNLLNTEVQPCKEKKINRRKSQETKCTKRALPKKSQVLKSCRKKKGKGKKSVQKSLYGERDIASKKPLLSPIPELPEVPEMTPSIPSIRRLGSGYFSSNGKLEEVKTPKNPVKRKDLLRHDPDLHMHQGYDKYDVSEFCSYIKSSSSLGNATSDEDPNTNIMNINENKNIPKAKNKSESENEPKAGTDSPVSCASVTEERVASDSPKPALTLQQGQEFSAGGQNAENLCQFFKISPDLNIKCERKDDFLGAAEGKLQCNRLMPNSQKDCHCLGDVLIENTKESKSQSEDLGRKPMESSSVVSCRDRKDRRRSMCYSDGRSLHLEKNGNHTPSSSVGSSVEISLENSELFKDLSDAIEQTFQRRNSETKVRRSTRLQKDLENEGLVWISLPLPSTSQKAKRRTICTFDSSGFESMSPIKETVSSRQKPQMAPPVSDPENSQGPAAGSSDEPGKRRKSFCISTLANTKATSQFKGYRRRSSLNGKGESSLTALERIEHNGERKQ

The next lines start with the molecule.

Molecule	binding (HMGA2-V5-miniTurbo)	binding (HMGA2-Flag-BioID2)
BRD2 (from UniProt P25440 1-801)	binds	binds
CBX3 (from UniProt Q13185 1-183)	binds	binds
H2AY (from UniProt O75367 1-369)	binds	binds
HMGB1 (from UniProt P09429 1-215)	binds	binds
LAP2B (from UniProt P42167)	binds	binds
MKI67 (from UniProt P46013 1-3256)	binds	binds
PSIP1 (from UniProt O75475 1-530)	binds	binds
SSRP1 (from UniProt Q08945 1-709)	binds	binds
WIZ (from UniProt O95785 1-1651)	binds	binds

From PMC9966875
